Source: PMC10165233
Results are given in words; binding and its absence hold for the method and conditions named. In cells and extracts the contact can be indirect. Some results given as binding are weak or reduced against the parent protein; the word gives no strength.

By UniProt entry, the sequences of proteins in these tests, tags left out.
UniProt O14980: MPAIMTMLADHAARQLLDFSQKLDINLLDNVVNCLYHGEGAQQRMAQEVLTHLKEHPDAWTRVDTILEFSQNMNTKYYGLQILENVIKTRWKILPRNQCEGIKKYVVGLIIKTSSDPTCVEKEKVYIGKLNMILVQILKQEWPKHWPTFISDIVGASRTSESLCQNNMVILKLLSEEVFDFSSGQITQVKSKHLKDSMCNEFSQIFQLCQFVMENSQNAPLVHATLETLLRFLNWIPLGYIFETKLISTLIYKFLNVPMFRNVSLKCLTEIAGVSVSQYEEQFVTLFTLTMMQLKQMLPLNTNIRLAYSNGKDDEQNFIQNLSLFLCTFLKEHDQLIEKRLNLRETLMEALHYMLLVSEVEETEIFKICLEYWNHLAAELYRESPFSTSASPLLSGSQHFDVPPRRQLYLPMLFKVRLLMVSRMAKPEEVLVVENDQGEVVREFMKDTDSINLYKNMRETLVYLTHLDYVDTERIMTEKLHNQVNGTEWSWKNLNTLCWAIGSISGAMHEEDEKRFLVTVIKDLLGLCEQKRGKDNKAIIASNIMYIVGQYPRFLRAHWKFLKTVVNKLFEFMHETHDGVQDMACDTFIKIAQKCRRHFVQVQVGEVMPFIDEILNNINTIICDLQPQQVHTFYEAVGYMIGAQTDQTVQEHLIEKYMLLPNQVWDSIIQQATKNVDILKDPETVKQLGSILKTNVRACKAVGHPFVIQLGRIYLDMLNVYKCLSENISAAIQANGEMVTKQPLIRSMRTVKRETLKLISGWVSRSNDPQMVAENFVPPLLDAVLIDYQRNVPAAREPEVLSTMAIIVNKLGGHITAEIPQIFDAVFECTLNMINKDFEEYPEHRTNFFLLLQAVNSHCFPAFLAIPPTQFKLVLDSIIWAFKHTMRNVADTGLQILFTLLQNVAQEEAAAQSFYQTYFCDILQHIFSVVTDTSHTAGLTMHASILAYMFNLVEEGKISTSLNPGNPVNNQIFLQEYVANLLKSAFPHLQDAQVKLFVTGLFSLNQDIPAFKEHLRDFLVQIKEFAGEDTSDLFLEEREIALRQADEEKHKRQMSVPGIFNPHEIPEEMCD

Tests used:
[1] = biological target: T1, basic leucine zipper transcription factor ATF (activating transcription factor)-like 2 (BATF2) (human (endogenous in HCT116 and CCD 841 CoN)) (UniProt Q8N1L9); test: co-IP; IgG or BATF2 antibody (2 µg) on Dynabeads protein G, 500 µg protein at 4°C overnight; eluate to Western blot; lysates of HCT116, C116 and A116 cells
T1 sequence: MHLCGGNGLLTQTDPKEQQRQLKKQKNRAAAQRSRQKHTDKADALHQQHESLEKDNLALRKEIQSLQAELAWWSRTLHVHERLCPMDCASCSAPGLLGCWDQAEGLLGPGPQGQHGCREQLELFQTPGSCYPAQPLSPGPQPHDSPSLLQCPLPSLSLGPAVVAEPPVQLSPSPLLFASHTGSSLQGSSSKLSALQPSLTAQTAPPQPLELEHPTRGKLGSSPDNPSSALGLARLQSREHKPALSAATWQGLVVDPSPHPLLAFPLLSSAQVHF

[2] = biological target: T2, recombinant wild-type BATF2 (C116 cells) (UniProt Q8N1L9); test: as above
T2 sequence: T1 sequence

binding [1]: binds
binding [2]: binds
Substance: chromosome region maintenance 1 (CRM1) (from UniProt O14980 1-1071)
